Test results: PubChem BioAssay AID1347426 (Functional Genomics Laboratory (NCATS/FGL), 2020)
In all, about 31,000 sequences went through this assay and about 1,400 (4.5%) were called active.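 How the source made its calls: active means median seed-adjusted z-score above 1 or below -1; inactive means the rest.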 The list shows a part of the results.

Experiment: Novel Modifiers of Survival Motor Neuron (SMN) Protein: Gene Identification via Genome-wide siRNA Screen;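 further: luminescence tracks full-length SMN protein made from the SMN2 reporter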
Conditions: HEK293T SMN2-luciferase reporter, siRNA knockdown, 72 h; actives lie on both sides
Procedure, shortened: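 siRNA screen, 10418 genes ×3 siRNAs; 1 pmol/well, lipid reverse transfection into HEK293T SMN2-luc reporter line. 72 h, 37 °C, 5% CO2; ONE-Glo readout. Data: neg-ctrl normalized, log10, MAD; hit = MAD >1.0 or < -1.0.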

| Sequence | median seed-adjusted z-score |
| --- | --- |
| CAAUGUGCCUCAACUCGAATT against TPH2 | inactive: 0.275 |
| UGGAGUAACUAAAGAAGUUTT against AMY1A | inactive: 0.272 |
| GCAAGUUUCGGACAGUACATT against TP63 | inactive: -0.129 |
| GCAUUUCGCUGUACAAGUUTT against IPO4 | inactive: -0.0188 |
| CGAAAACGAAAAUACUUCATT against NFIA | inactive: -0.268 |
| GAAUAGGUAUUGGUGAAUUTT against EGFR | inactive: 0.263 |
| CGAUAUACUGCACUAGAUATT against COPS2 | inactive: 0.202 |
| GAGGCAAGACGGUACUGGATT against PRMT6 | inactive: -0.412 |
| GCAGUGAAGUUUCUACAGATT against PEX14 | inactive: 0.844 |
| CCAUGACCUUCAUUGAUCATT against ALPK2 | inactive: -0.154 |
| CUUUGGAACAAAUACCGAATT against NXN | inactive: 0.175 |
| CAUCACGCCUAGAGAAUUATT against RAI1 | inactive: 0.113 |
| GCAUCAGCUUAGAUCCAGATT against STX16 | inactive: -0.569 |
| AGGACAAUCCUGACAAGAATT against SEMA7A | inactive: 0.0522 |
| GACAGUAACUUUAAUUCCATT against IDH3A | inactive: 0.137 |
| GGUCAUAGCCGUGAACGAATT against CHL1 | inactive: 0.1 |
| CCAUAUUGGAGAAUCCAGATT against CCNH | inactive: -0.659 |
| GGAAGAAGGUGAUCGAUGATT against HIVEP3 | inactive: 0.516 |
| CAAAGAUGUUGAUAUGCCUTT against GJC2 | inactive: 0 |
| AAUCUAUUGCUGUCAGAUATT against TUBB3 | inactive: 0.208 |
| AGAAAUUGGUGUUCAGAAUTT against GTF2F2 | active: -1.14 |
| GCUUCCUGAUUAUCGACGATT against DDX51 | inactive: -0.0715 |

| Sequence | median seed-adjusted z-score |
| --- | --- |
| GACAAGUACAAGACCAUUATT against SERPINA10 | inactive: 0.0233 |
| GCAGUUUGGGUACAACAUUTT against SLC2A4 | inactive: 0.0588 |
| GUUUCCAACUUGCUCAUGATT against CDK10 | inactive: 0.327 |
| GGGUGCACAUCAUUAAGAATT against TBX20 | inactive: 0.00303 |
| GCUUCUUGCCCGACCUCAATT against KCNC3 | inactive: 0.279 |
| CCUAUGAUCCAACACCAUATT against GMPPA | inactive: 0.619 |
| CCUCAGUGGUUUAACAGGATT against KCNK18 | inactive: 0.115 |
| GACCUUCAGUGCCCAAGUATT against COL9A3 | inactive: 0.16 |
| GAGAUAUCAUAUGAGAUCATT against BAZ2A | inactive: 0.73 |
| ACUUUGUCCGUGUGUCUUATT against SLC30A3 | active: -1.26 |
| GGUUGCAUUGAUGAAAUUATT against ZFAND1 | inactive: -0.272 |
| CGCGCAAUGUGACCGUGAATT against MAG | inactive: -0.0667 |
| GCGAAGCUCUUUAGAGGAATT against IKZF1 | inactive: -0.298 |
| CAAUGCAUUGUAUUCAGAATT against PRKY | inactive: 0.168 |
| GAACAUUGAGUCGACAAUUTT against STX5 | inactive: 0.108 |
| GAUGCUGCCUCUCAACUUATT against MAT2B | inactive: -0.554 |
| GCUAGAACGGGAACGAAGATT against NEK10 | inactive: -0.0464 |
| GAUUUGCUGUUCGACAAGATT against IMPA2 | inactive: 0.0513 |
| GCACCUAUGUCUCAGCUAATT against LTBR | inactive: 0 |
| CCAACAUGCCUGCCUCAUUTT against PNMT | inactive: -0.559 |
| GCCUUUGGACAACUAUUUUTT against TPK1 | inactive: 0.521 |
| GGCUAUGCAUGUUUAAAGATT against GNG2 | inactive: 0.369 |

As entered above.
Entry of GAGGCAAGACGGUACUGGATT against PRMT6 under median seed-adjusted z-score: inactive: -0.412
Entry of CGAAAACGAAAAUACUUCATT against NFIA under median seed-adjusted z-score: inactive: -0.268
Entry of GGUCAUAGCCGUGAACGAATT against CHL1 under median seed-adjusted z-score: inactive: 0.1
Entry of GCUUCUUGCCCGACCUCAATT against KCNC3 under median seed-adjusted z-score: inactive: 0.279

(list continues)

| Sequence | median seed-adjusted z-score |
| --- | --- |
| ACUGUAUGGAGUUCCAGAATT against SLC6A13 | inactive: 0.267 |
| CCACUGUCUGUAUCAGUAUTT against ARGFX | inactive: 0.273 |
| GGUAUAUACUAGAAAACCATT against RFPL4B | inactive: 0.92 |
| GAGCUCUCAUGGAAUGUCATT against DBH | inactive: 0.337 |
| GCAUGAUCAUGCUGAUUAUTT against GSR | inactive: -0.467 |
| AAACCGAGAUGCCUCUACATT against HMGN4 | inactive: -0.0471 |
| GGAUUACAGGAGACCCAUATT against FUBP1 | active: -1.52 |
| GGAGUUUGCAUGGACAAUATT against WISP1 | inactive: -0.0121 |
| GAAGGGACCUUAUUCGUAUTT against DCP1A | inactive: 0.361 |
| CCUACCAUCUUGUCCCUAATT against SLC7A6 | inactive: -0.0877 |
| CAAUGGUAGAUAUGACGAUTT against USP34 | inactive: 0.0665 |
| GGAUUUCAACCUAGCAAAATT against ZNF454 | inactive: 0 |
| GGCCCAGUCCAAAUGGUUUTT against GAS7 | inactive: 0.335 |
| GCACUGAUUUCCUAUUUGATT against NDST2 | inactive: -0.0582 |
| GGCUCAGUGCUAUGGAGAATT against MPZ | inactive: 0.337 |
| UACCAGAAGUUCUUCGAUATT against ST6GAL1 | inactive: -0.14 |
| GCUCAUUGGUACAAUGUCATT against POLE | active: -1.55 |
| CGGGCAGUAACUAACCAUATT against DCXR | inactive: -0.394 |
| CCCAGAAGAUGACCACUCATT against PDXDC1 | inactive: 0.665 |
| CAACUUCCCGAAUCAGGAATT against CA6 | inactive: 0.349 |
| GGAGCAAUUUUACGAACUATT against ZC3H7A | inactive: 0.208 |
| GCUGCAACCAGAGCAUGAATT against ZNF513 | inactive: -0.0616 |

Two entries from above, with each value named.
CCCAGAAGAUGACCACUCATT against PDXDC1
  median seed-adjusted z-score: inactive: 0.665
CAACUUCCCGAAUCAGGAATT against CA6
  median seed-adjusted z-score: inactive: 0.349

Continuation.

| Sequence | median seed-adjusted z-score |
| --- | --- |
| GGCAUGAAAUGGGUAGAUATT against DOCK7 | inactive: 0.23 |
| GUUAUGCAAUGAGUACUGATT against BIRC2 | inactive: 0.336 |
| GAAAGGAUAUGUUACUCCUTT against CTSK | inactive: 0.0972 |
| GGACAACAGUCAGUCAAAUTT against ANP32D | inactive: -0.714 |
| GUCUAUUCUAUUUAUCCUATT against AP4E1 | inactive: 0 |
| GCAUCAUGGUCAAGACUUUTT against UBE2O | inactive: 0.125 |
| AGAACUUACUCAUGGGCAATT against GRAP2 | inactive: 0.296 |
| GAGUGUUUGUGAAUUGCAATT against CD3D | inactive: -0.403 |
| AGUGAACGGCUGGUCGUUATT against ZDHHC11 | inactive: -0.098 |
| GAUACGGAAUGGUCAAACATT against VRK1 | inactive: -0.148 |
| GCAUCGUCAGAGAAACCCATT against ST6GAL2 | inactive: 0.054 |
| CCGUAUUGCUAAACCUACATT against SLC44A5 | inactive: 0.179 |
| CCACGAGAUUUCACAAACATT against PRKD3 | inactive: -0.906 |
| AGACGACCUUUGAUGUCUATT against CEL | inactive: 0 |
| GGUUUAUGGUGAUUGCAUUTT against ASPH | inactive: 0.0199 |
| CUGUGAAUCUGCAACAAGATT against PGM3 | inactive: -0.527 |
| GGAAAGCAACAUACAGACATT against FABP6 | inactive: 0.122 |
| GUCUAUUACUAUAUGCGCATT against SMG6 | inactive: -0.265 |
| GUGACCAACCCAAAACGUATT against ENO2 | inactive: 0.418 |
| GUAUGUUGAUCCAUCAAGATT against USP25 | inactive: 0.0461 |
| GGUUCCAUCUUACUUGUCATT against M6PR | inactive: -0.879 |
| GAAGCAUAUUGUUAUUAUATT against CCL7 | inactive: 0.23 |

| Sequence | median seed-adjusted z-score |
| --- | --- |
| GGAUCUGACAACAAACUGATT against AP3S1 | inactive: 0.787 |
| AGAUGACAGACCAAAGUUATT against CYB5A | inactive: 0.226 |
| GAUCAAGACUCUGCGCCUATT against HAND1 | inactive: 0.161 |
| CCUACAAGGUUACUCACUATT against NAMPT | inactive: 0 |
| GCAUGAAAGAGGACCAGAATT against KCNK1 | inactive: 0.124 |
| CACUCUCACUUAUUAAAGATT against PGCP | inactive: 0.145 |
| GGAGGAAGGUCUCAACGUATT against TCFL5 | active: 1.52 |
| CUAUCGUGAUGCUAACAGATT against PTPRA | inactive: -0.438 |
| GAACGGAUCAGAUGUCUAUTT against PGK1 | inactive: -0.0196 |
| CCAUCGUAGGGAUCAUAGUTT against TNFRSF10C | inactive: 0 |
| GCCCUAUUGUUACUGUUGATT against SMAD4 | inactive: 0.0746 |
| ACAGUGACGUGAAAGUCUATT against LIMS3 | inactive: -0.078 |
| GGACAGCAAUGUCACACUUTT against COL16A1 | inactive: -0.0496 |
| CCAACUGAUUUAGAGAUGATT against MED4 | inactive: -0.632 |
| AGAUGAACCGGGUCAUCAATT against ATP1B2 | inactive: -0.185 |
| GCCCUCAUGCUGUAAAGAATT against CCL25 | inactive: 0.0698 |
| GCUACUUGUUUCUUCUGGATT against TBX6 | inactive: 0.144 |
| CAGCUAAGGUGAUAGCGGATT against DPYS | inactive: -0.288 |
| CCUUUGAUCAUUCACCAAATT against PTPN2 | inactive: 0.302 |
| GGUAGUUCCUGACCAUUAUTT against ADAMTSL3 | inactive: -0.0419 |
